# Experimental data taken from paper doi:10.1101/2023.09.18.558326.
# These are yes or no findings as the source states them, for the method shown. Where a sequence is shown, tags or fusion partners need not be part of it.
# B1: GAL4 activation domain (AD) fused to PIF1 (protein, UniProt Q8GZM7 1-478)
# chain: MHHFVPDFDTDDDYVNNHNSSLNHLPRKSITTMGEDDDLMELLWQNGQVVVQNQRLHTKKPSSSPPKLLPSMDPQQQPSSDQNLFIQEDEMTSWLHYPLRDDDFCSDLLFSAAPTATATATVSQVTAARPPVSSTNESRPPVRNFMNFSRLRGDFNNGRGGESGPLLSKAVVRESTQVSPSATPSAAASESGLTRRTDGTDSSAVAGGGAYNRKGKAVAMTAPAIEITGTSSSVVSKSEIEPEKTNVDDRKRKEREATTTDETESRSEETKQARVSTTSTKRSRAAEVHNLSERKRRDRINERMKALQELIPRCNKSDKASMLDEAIEYMKSLQLQIQMMSMGCGMMPMMYPGMQQYMPHMAMGMGMNQPIPPPSFMPFPNMLAAQRPLPTQTHMAGSGPQYPVHASDPSRVFVPNQQYDPTSGQPQYPAGYTDPYQQFRGLHPTQPPQFQNQATSYPSSSRVSSSKESEDHGNHTTG
# B2: GAL4 activation domain (AD) fused to PIF5 (protein, UniProt Q84LH8 1-444)
# chain: MEQVFADWNFEDNFHMSTNKRSIRPEDELVELLWRDGQVVLQSQARREPSVQVQTHKQETLRKPNNIFLDNQETVQKPNYAALDDQETVSWIQYPPDDVIDPFESEFSSHFFSSIDHLGGPEKPRTIEETVKHEAQAMAPPKFRSSVITVGPSHCGSNQSTNIHQATTLPVSMSDRSKNVEERLDTSSGGSSGCSYGRNNKETVSGTSVTIDRKRKHVMDADQESVSQSDIGLTSTDDQTMGNKSSQRSGSTRRSRAAEVHNLSERRRRDRINERMKALQELIPHCSRTDKASILDEAIDYLKSLQMQLQVMWMGSGMAAAAAAAASPMMFPGVQSSPYINQMAMQSQMQLSQFPVMNRSAPQNHPGLVCQNPVQLQLQAQNQILSEQLARYMGGIPQMPPAGNQMQTVQQQPADMLGFGSPAGPQSQLSAPATTDSLHMGKIG
# Molecular target: BD-CFH1ΔF (GAL4 DNA-binding domain fused to CFH1ΔF) (Arabidopsis)
# Assay: two-hybrid
row,Binder,binding
1,B1,no binding
2,B2,no binding
